The other results are listed elsewhere or left out.

Sequences of proteins named here, by UniProt entry; tags and fusion partners are left off.
UniProt Q0JBA9, entry or part of it: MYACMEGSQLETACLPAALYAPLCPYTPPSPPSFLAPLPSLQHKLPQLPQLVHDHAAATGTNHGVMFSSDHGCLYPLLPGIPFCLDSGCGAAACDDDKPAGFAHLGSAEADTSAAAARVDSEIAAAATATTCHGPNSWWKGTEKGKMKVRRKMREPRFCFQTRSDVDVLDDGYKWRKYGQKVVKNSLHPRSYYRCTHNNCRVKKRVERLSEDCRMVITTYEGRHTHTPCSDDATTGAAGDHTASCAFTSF

The test has as its target OsWRKY34 (Oryza sativa, UniProt Q0JBA9 1-250). In words: protein-binding microarray (RPBM); PBS, 2% BSA, 51.3 ng/ul salmon testes DNA, 50 uM zinc acetate, 200 nM TF, 25 C, 1 h; high values mean tight binding. To be noted: protein: recombinant; tags: N-terminal polyhistidine and DsRed monomer fusion (pET32a); label: CyDye5-dUTP incorporated in the synthesized complementary strand; 3' TTTTT single-stranded linker to array surface; dsDNA, one strand shown. An outline of the steps: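 Using Ni–NTA, transcription factors fused N-terminally to polyhistidine and DsRed were purified after expression in E. coli BL21-CodonPlus. These were incubated at 200 nM with a blocked, double-stranded custom Agilent array for 1 h at 25 °C in a buffer containing 50 µM zinc acetate, and the array was washed. The binding signal is per-feature fluorescence intensity (arbitrary units) on an Axon 4000B scanner.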
Take “GAAATATGATTGTTATGCATGACAGCGGCTCAGAGTTGACCGGAGTCACCTAGTGCAG”: the binding signal is 8600 fluorescence intensity (a.u.).
As to “CGTTACCGCTTTCATCACTGCCTCCGTCACGCGCTGCCTACGGAGTCACCTAGTGCAG”, the binding signal was 10600 fluorescence intensity (a.u.).
Consider “ATTGTGTTATATGACTTGGCACATCTTTCTTATTTTGAATCGGAGTCACCTAGTGCAG”, for which the binding signal was 9170 fluorescence intensity (a.u.).
With “AATGCCCGCAAAGCTTATGGTCCAGTCGAAAGCCCACAGTCGGAGTCACCTAGTGCAG”, the binding signal was 8400 fluorescence intensity (a.u.).
Take “CCTCCGTTTCTAAATATTTAACGCCATTGACTTTTTAGCACGGAGTCACCTAGTGCAG”: the binding signal is 9160 fluorescence intensity (a.u.).
For the sequence “CTAATCCTATTCTAGTAATTATTAATGCAGTAATTTTGTTCGGAGTCACCTAGTGCAG”, the binding signal was 9180 fluorescence intensity (a.u.).
With “ACGAGTCCTACTATCCATACACACCCGTCCTATGCCGGTTCGGAGTCACCTAGTGCAG”, the binding signal was 9760 fluorescence intensity (a.u.).
For “TTTCTTCAATCGGTATTCCTTTGCATGTTTTAACAGCTGACGGAGTCACCTAGTGCAG” the value was 8790 fluorescence intensity (a.u.); for “CTCGAGATCACCGGGAGAGAGGGGAAAGGGCGGGGACGTCCGGAGTCACCTAGTGCAG”, 8300 fluorescence intensity (a.u.).
Take “ATATGTGCTGCTTGTCAATGCTTCCTCGGTTCTTTTTTTCCGGAGTCACCTAGTGCAG”: the binding signal was 13000 fluorescence intensity (a.u.).
The same measure for “GCGCGTCATCCTCCGCGAATTTTGTTATTCGCTGCCGCTGCGGAGTCACCTAGTGCAG”: 8250 fluorescence intensity (a.u.); for “TTTTTCTCTTCTCTCGGCCGCTGCACTTTTTTCTTTCTTTCGGAGTCACCTAGTGCAG”: 12400 fluorescence intensity (a.u.).
Consider “ATCCATCTCCTCCCATGTGTGCTTTTGGCAGTGAAGCGATCGGAGTCACCTAGTGCAG”, for which the binding signal is 10100 fluorescence intensity (a.u.).
Turning to “GTTCAATTTTGTTTGCTTTGTATCCCTCTGTTGGTAGTTACGGAGTCACCTAGTGCAG”, the binding signal was 9190 fluorescence intensity (a.u.).
The same measure for “CATCGCATATTTGACACAAACTGCACCAATGCTTTCTTCACGGAGTCACCTAGTGCAG”: 8820 fluorescence intensity (a.u.).
As to “ACTTTTCGCATTATAGGCTAGATATTATCTATACATGTCACGGAGTCACCTAGTGCAG”, the binding signal was 12200 fluorescence intensity (a.u.).
For the sequence “ATCCTTCCACGTCATCGATCCGCGCCGCATGCTTTCCACCCGGAGTCACCTAGTGCAG”, the binding signal was 15400 fluorescence intensity (a.u.).
Take “TCCGGTTGTGTTTGTACCTGACAAGTTGATTCATCTCGCACGGAGTCACCTAGTGCAG”: the binding signal was 9230 fluorescence intensity (a.u.).
For “CCCCACCTGTCACATGCCTCACGCAGCAGAGCTCAACACACGGAGTCACCTAGTGCAG” the value was 9150 fluorescence intensity (a.u.); for “ATACCGCCTATTTGCCACTCGTTTTTCTTCTCTTGGGCCGCGGAGTCACCTAGTGCAG”, 18700 fluorescence intensity (a.u.); for “CCCTATCCAACGGCGTGATCTGATTCTGGTGGGATCTTTTCGGAGTCACCTAGTGCAG”, 8720 fluorescence intensity (a.u.).
For the sequence “CACATTCCATATACTTTAATCCCCTGATTTTTCTCCTCCTCGGAGTCACCTAGTGCAG”, the binding signal was 8540 fluorescence intensity (a.u.).
For the sequence “GATACGAATAGTTTAAATTTTTGGCTAATTATTTTTCCAGCGGAGTCACCTAGTGCAG”, the binding signal was 8200 fluorescence intensity (a.u.).
For “ATAGGCTATGTTCTTTGGACAACTTTTCCAACTTTACTCTCGGAGTCACCTAGTGCAG”, the binding signal was 8770 fluorescence intensity (a.u.).
For “TCCAGGTAGTCCACCGTGTCGGTCCACTCCGCCGCCGGCGCGGAGTCACCTAGTGCAG”, the binding signal is 9470 fluorescence intensity (a.u.).
“CGGTGGTTTGACTGCTTTGACTTTTTTTTTTTTGGACCTTCGGAGTCACCTAGTGCAG”: the binding signal was 14100 fluorescence intensity (a.u.).
As to “CGTTGCCGCCATCACAGTCACTATCATGGCCAGATCCATCCGGAGTCACCTAGTGCAG”, the binding signal is 8260 fluorescence intensity (a.u.).
Regarding “TAGGTGAGGTAGCTACTTACATGTGCGTTTTTTATTTCTTCGGAGTCACCTAGTGCAG”, the binding signal is 9180 fluorescence intensity (a.u.).
In the case of “CATATATGGCTGTGTTCTTTTCCCCTCTTTCCTAACTCACCGGAGTCACCTAGTGCAG”, the binding signal is 8040 fluorescence intensity (a.u.).
As for “ACCTGGTCGTTGACTTGAGAGCCAAGCTTTGTTCACTAGCCGGAGTCACCTAGTGCAG”, the binding signal was 9440 fluorescence intensity (a.u.).
For “CTTCTACCTAATTTATATAATCTGCTAGTACTATACTTACCGGAGTCACCTAGTGCAG” the value was 8030 fluorescence intensity (a.u.).
Regarding “CCTCATGGCACCATCTGTCTCACCATCCCGCGGGCAGCTTCGGAGTCACCTAGTGCAG”, the binding signal was 8800 fluorescence intensity (a.u.).
Regarding “TACCGTTGCCTAGCGCTGTCACAAATCCAACACAAATTCCCGGAGTCACCTAGTGCAG”, the binding signal was 8850 fluorescence intensity (a.u.).
Consider “GACAAACATCCTGTACTACTCCCTCCGTTCTATTTTAAATCGGAGTCACCTAGTGCAG”, for which the binding signal is 8220 fluorescence intensity (a.u.).
For “TCACGTCGACCTCATCGGCAATTCGGCACCGCACCCTCCCCGGAGTCACCTAGTGCAG”, the binding signal is 8130 fluorescence intensity (a.u.).
For “TGGGTTGAACTTTGGGTTAATTGAAGTGTATAGCTTAATTCGGAGTCACCTAGTGCAG” the value was 9320 fluorescence intensity (a.u.); for “CCGTCCATCCATCTCCGATGCCGACCCTGCCACCGTCATCCGGAGTCACCTAGTGCAG”, 12000 fluorescence intensity (a.u.); for “GTGGTTAGCTATTGGTTGGATGATCTATGTGGGAAAGGCTCGGAGTCACCTAGTGCAG”, 9460 fluorescence intensity (a.u.).
Take “CACTAAAGTTTCATTGGGTTTTCAGTTTTCACTTCATTATCGGAGTCACCTAGTGCAG”: the binding signal is 10700 fluorescence intensity (a.u.).
For “TGGCTGCCCTCTACTGCCATCCAAAAACCCTAGCCGCACCCGGAGTCACCTAGTGCAG” the value was 8840 fluorescence intensity (a.u.); for “CCTCTCGTGCTCCGGTCTCATCGGCGCCCCAACCGCTTGACGGAGTCACCTAGTGCAG”, 10900 fluorescence intensity (a.u.); for “CGTCCTGGTGGTGCCCCATGTGCGAGTTCTTCACCTTCGTCGGAGTCACCTAGTGCAG”, 8190 fluorescence intensity (a.u.).
As for “TGCATTGAAGGGTTTCGTTTTTCTAACTGGAGCAGTATACCGGAGTCACCTAGTGCAG”, the binding signal is 8560 fluorescence intensity (a.u.).
With “AATTCATGTTTGTTTTCCATGTCTTCACATCATATCATACCGGAGTCACCTAGTGCAG”, the binding signal was 11400 fluorescence intensity (a.u.).
The same measure for “GAGAGGATGATATGTGGGTCCTATTTTTTTTGAATGACAACGGAGTCACCTAGTGCAG”: 8440 fluorescence intensity (a.u.); for “CTCGCCTCACACCTCTTCTCTAATTATACCATCTCATCCTCGGAGTCACCTAGTGCAG”: 8060 fluorescence intensity (a.u.); for “AAACAGTCACGCCTAACTACATGCCTTATAAATTTCCATACGGAGTCACCTAGTGCAG”: 9130 fluorescence intensity (a.u.).
For the sequence “CGCTTTTGCACAGTATTTTTATTTGCAGAGTTATGTTTGTCGGAGTCACCTAGTGCAG”, the binding signal was 8090 fluorescence intensity (a.u.).
As to “CACGGCCTATTCTTGAAATTAGTTTTTTGCACGGTTTATTCGGAGTCACCTAGTGCAG”, the binding signal is 8200 fluorescence intensity (a.u.).
For “GGTATGAAAAATTTTCTATCCTTTCCTATTGCTTATTTTTCGGAGTCACCTAGTGCAG”, the binding signal is 9400 fluorescence intensity (a.u.).
In the case of “TGGTATAATGGTCATTTAATTGTTGACCTTGCATGTGAGGCGGAGTCACCTAGTGCAG”, the binding signal is 15200 fluorescence intensity (a.u.).
In the case of “GCCGACCGCTAGCCGCCCCTGTTTCGTCCGCACTGAGCTACGGAGTCACCTAGTGCAG”, the binding signal was 9910 fluorescence intensity (a.u.).
The same measure for “GAGCTCAACATGCGTGGGCCGCTCCTTCACCGGCTGCAGCCGGAGTCACCTAGTGCAG”: 8620 fluorescence intensity (a.u.).
On to “ACTACTAGATAGTTTCTGGGTTGGGGATGGCCTAATAAATCGGAGTCACCTAGTGCAG”, for which the binding signal is 12900 fluorescence intensity (a.u.).

Source of the values: publication PMC7819943, “Rice protein-binding microarrays: a tool to detect cis-acting elements near promoter regions in rice”.
